{"source": "PubChem BioAssay AID652272 (Drosophila RNAi Screening Center, 2013)", "assay": "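Genes whose knock-down decreases or increases Hedgehog reporter output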 (primary screen)", "cells": "Drosophila clone 8 (Cl8) cells", "knock-down reagent": "long dsRNA against Drosophila genes", "detection": "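Firefly light from a Hedgehog-responsive ptc promoter reporter and Renilla reference light, both read on a plate reader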", "scale": "firefly Hh reporter signal: higher = more ptc reporter light; Renilla reference signal: higher = more Renilla control light", "hit rule": "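Hit when the z-score averaged over two replicates is under -2 or over +3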", "calls": "active = hit: reporter lowered or raised; inactive = not a hit", "note": "The deposit covers about 21,000 reagents; shown is a random part of those with a known target gene and a result. In the full data, 503 (2.4%) got an active call. 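Raw plate light values, not normalised; calls rest on replicate z-scores that were not deposited; hits include reporter decreases as well as increases.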 Names joined by + are all predicted targets of the reagent. Not stated in the record: the amount of reagent, the time to read-out."}
{"Target gene": "Pex13", "amplicon": "DRSC06877", "firefly Hh reporter signal, replicate 1": 81547, "firefly Hh reporter signal, replicate 2": 58892, "Renilla reference signal, replicate 1": 3752, "Renilla reference signal, replicate 2": 2723, "call": "inactive"}
{"Target gene": "PPYR1", "amplicon": "DRSC19612", "firefly Hh reporter signal, replicate 1": 1.21e5, "firefly Hh reporter signal, replicate 2": 2.39e5, "Renilla reference signal, replicate 1": 4224, "Renilla reference signal, replicate 2": 10115, "call": "inactive"}
{"Target gene": "Cals", "amplicon": "DRSC17196", "firefly Hh reporter signal, replicate 1": 1.69e5, "firefly Hh reporter signal, replicate 2": 1.45e5, "Renilla reference signal, replicate 1": 3965, "Renilla reference signal, replicate 2": 4630, "call": "inactive"}
{"Target gene": "TwdlB", "amplicon": "DRSC16050", "firefly Hh reporter signal, replicate 1": 93209, "firefly Hh reporter signal, replicate 2": 1.09e5, "Renilla reference signal, replicate 1": 1804, "Renilla reference signal, replicate 2": 2282, "call": "inactive"}
{"Target gene": "CG2861", "amplicon": "DRSC18229", "firefly Hh reporter signal, replicate 1": 62368, "firefly Hh reporter signal, replicate 2": 1.87e5, "Renilla reference signal, replicate 1": 1729, "Renilla reference signal, replicate 2": 7036, "call": "inactive"}
{"Target gene": "Mau2", "amplicon": "DRSC15550", "firefly Hh reporter signal, replicate 1": 1.07e5, "firefly Hh reporter signal, replicate 2": 87948, "Renilla reference signal, replicate 1": 4203, "Renilla reference signal, replicate 2": 3257, "call": "inactive"}
{"Target gene": "DCTN5-p25", "amplicon": "DRSC03525", "firefly Hh reporter signal, replicate 1": 65364, "firefly Hh reporter signal, replicate 2": 77100, "Renilla reference signal, replicate 1": 1571, "Renilla reference signal, replicate 2": 5957, "call": "inactive"}
{"Target gene": "CLS", "amplicon": "DRSC15642", "firefly Hh reporter signal, replicate 1": 7.06e5, "firefly Hh reporter signal, replicate 2": 1.58e5, "Renilla reference signal, replicate 1": 34247, "Renilla reference signal, replicate 2": 4857, "call": "inactive"}
{"Target gene": "PTPMT1", "amplicon": "DRSC14235", "firefly Hh reporter signal, replicate 1": 4.71e5, "firefly Hh reporter signal, replicate 2": 1.33e5, "Renilla reference signal, replicate 1": 25105, "Renilla reference signal, replicate 2": 3977, "call": "inactive"}
{"Target gene": "Wdr62", "amplicon": "DRSC00081", "firefly Hh reporter signal, replicate 1": 7.38e5, "firefly Hh reporter signal, replicate 2": 3.39e5, "Renilla reference signal, replicate 1": 37329, "Renilla reference signal, replicate 2": 13584, "call": "inactive"}
{"Target gene": "Wdr62", "amplicon": "DRSC00082", "firefly Hh reporter signal, replicate 1": 7.74e5, "firefly Hh reporter signal, replicate 2": 2.76e5, "Renilla reference signal, replicate 1": 41654, "Renilla reference signal, replicate 2": 11792, "call": "inactive"}
{"Target gene": "Wdr62", "amplicon": "DRSC00701", "firefly Hh reporter signal, replicate 1": 92673, "firefly Hh reporter signal, replicate 2": 33510, "Renilla reference signal, replicate 1": 3703, "Renilla reference signal, replicate 2": 1480, "call": "inactive"}
{"Target gene": "CG15021", "amplicon": "DRSC08475", "firefly Hh reporter signal, replicate 1": 82593, "firefly Hh reporter signal, replicate 2": 74042, "Renilla reference signal, replicate 1": 5536, "Renilla reference signal, replicate 2": 5635, "call": "inactive"}
{"Target gene": "RpL7", "amplicon": "DRSC03417", "firefly Hh reporter signal, replicate 1": 18676, "firefly Hh reporter signal, replicate 2": 17405, "Renilla reference signal, replicate 1": 1306, "Renilla reference signal, replicate 2": 3592, "call": "active"}
{"Target gene": "CG42512 + CG32573", "amplicon": "DRSC19532", "firefly Hh reporter signal, replicate 1": 94760, "firefly Hh reporter signal, replicate 2": 2.03e5, "Renilla reference signal, replicate 1": 3706, "Renilla reference signal, replicate 2": 8709, "call": "inactive"}
{"Target gene": "CG42512 + CG32573", "amplicon": "DRSC19906", "firefly Hh reporter signal, replicate 1": 1.87e5, "firefly Hh reporter signal, replicate 2": 1.51e5, "Renilla reference signal, replicate 1": 3040, "Renilla reference signal, replicate 2": 4002, "call": "inactive"}
{"Target gene": "BomT3", "amplicon": "DRSC13537", "firefly Hh reporter signal, replicate 1": 50581, "firefly Hh reporter signal, replicate 2": 2.22e5, "Renilla reference signal, replicate 1": 11043, "Renilla reference signal, replicate 2": 4768, "call": "inactive"}
{"Target gene": "BomT3", "amplicon": "DRSC15871", "firefly Hh reporter signal, replicate 1": 4.88e5, "firefly Hh reporter signal, replicate 2": 1.77e5, "Renilla reference signal, replicate 1": 28032, "Renilla reference signal, replicate 2": 12887, "call": "inactive"}
{"Target gene": "metro", "amplicon": "DRSC06341", "firefly Hh reporter signal, replicate 1": 1.06e5, "firefly Hh reporter signal, replicate 2": 55254, "Renilla reference signal, replicate 1": 3872, "Renilla reference signal, replicate 2": 2059, "call": "inactive"}
{"Target gene": "metro", "amplicon": "DRSC06725", "firefly Hh reporter signal, replicate 1": 85154, "firefly Hh reporter signal, replicate 2": 62678, "Renilla reference signal, replicate 1": 1561, "Renilla reference signal, replicate 2": 4340, "call": "inactive"}
{"Target gene": "MED28", "amplicon": "DRSC15721", "firefly Hh reporter signal, replicate 1": 6.25e5, "firefly Hh reporter signal, replicate 2": 75738, "Renilla reference signal, replicate 1": 32416, "Renilla reference signal, replicate 2": 410, "call": "inactive"}

A run of entries taken from the entries so far, for reference:
{"Target gene": "CG42512 + CG32573", "amplicon": "DRSC19532", "firefly Hh reporter signal, replicate 1": 94760, "firefly Hh reporter signal, replicate 2": 2.03e5, "Renilla reference signal, replicate 1": 3706, "Renilla reference signal, replicate 2": 8709, "call": "inactive"}
{"Target gene": "CG42512 + CG32573", "amplicon": "DRSC19906", "firefly Hh reporter signal, replicate 1": 1.87e5, "firefly Hh reporter signal, replicate 2": 1.51e5, "Renilla reference signal, replicate 1": 3040, "Renilla reference signal, replicate 2": 4002, "call": "inactive"}
